Results published in patent US20030215391A1, “Fluorescent agents for real-time measurement of organ function” (priority 2003, published 2003).

Test: Transcutaneous laser-induced fluorescence measurement of dye tissue concentration (feasibility study)
Assay type: in vivo, Syrian hamsters
Settings: 10 mg/kg i.v., hamster tongue

Substance: chloroaluminum sulfonate phthalocyanine [CASPc]
- changes in CASPc concentration (from TFM) versus time compared with tissue concentration after extraction: followed the changes in CASPc tissue concentration very closely
- correlation between the LIF intensity and CASPc concentration as determined after extraction of the dye (excitation 610 nm, fluorescence at 684 nm): positive linear correlation
